Source: patent US20220340629A1, “Myosin Derived Peptides and Related Compounds with Anticoagulant Activities” (THE SCRIPPS RESEARCH INSTITUTE, priority 0001, published 2022)

Chains of the proteins cited; added tags and fusions are not shown. Lines headed by an entry give the natural chain unless they say otherwise; changes in a name come on top.
UniProt P00742: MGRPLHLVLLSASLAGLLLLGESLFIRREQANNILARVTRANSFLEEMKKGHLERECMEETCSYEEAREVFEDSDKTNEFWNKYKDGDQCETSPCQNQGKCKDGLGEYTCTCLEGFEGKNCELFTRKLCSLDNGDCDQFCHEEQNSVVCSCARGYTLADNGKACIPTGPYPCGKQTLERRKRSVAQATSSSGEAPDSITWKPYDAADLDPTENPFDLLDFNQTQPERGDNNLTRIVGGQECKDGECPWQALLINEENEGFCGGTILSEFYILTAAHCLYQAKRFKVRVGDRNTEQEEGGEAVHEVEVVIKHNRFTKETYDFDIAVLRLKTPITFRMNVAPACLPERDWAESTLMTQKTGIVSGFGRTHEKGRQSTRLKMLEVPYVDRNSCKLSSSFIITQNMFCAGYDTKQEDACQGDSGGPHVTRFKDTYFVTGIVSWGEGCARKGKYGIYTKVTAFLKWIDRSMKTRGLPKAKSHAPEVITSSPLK

Target: Human factor Xa (human, UniProt P00742 41-179; P00742 235-488, limits assumed)
Experiment: plate binding assay: peptide coated on microtiter wells, bound factor Xa detected with chromogenic substrate

ARCRGFLARVEYQRMVERREAIFCIQYNIRSFMNVKHWPW (C-terminal amide (-NH2)) [Peptide HC796-835 (human skeletal muscle myosin heavy chain MYH2 residues 796-835)]
binding: binds

Results are given in words; binding and its absence hold for the method and conditions named. Binding can be weak; no strength is given.
